Source: PMC11421793
No constants are given. Whether binding was seen depends on the method and setting. Binding seen in cells or lysates may run through a third protein. Binding calls can cover weak binding; strength is not graded here.

Tests used:
[1] = biological target: T1, IMC6^2-290-3xHA H203* (Azi at 203) (Toxoplasma gondii) (UniProt S8F8Q1); assay: cross-linking; Azi photocrosslinking (365 nm, 20 min, on ice) in parasites; whole cell lysates, anti-HA western blot; size of the crosslinked product compared between strains with untagged and smMyc-tagged candidate partner
T1 sequence (chain, p-azidophenylalanine (Azi) at 203 (amber stop codon)): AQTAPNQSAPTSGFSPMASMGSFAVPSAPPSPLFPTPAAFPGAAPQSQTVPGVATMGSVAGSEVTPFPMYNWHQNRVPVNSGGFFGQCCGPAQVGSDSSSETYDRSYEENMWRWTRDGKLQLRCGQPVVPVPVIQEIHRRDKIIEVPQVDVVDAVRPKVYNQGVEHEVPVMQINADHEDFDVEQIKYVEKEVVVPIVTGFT

[2] = biological target: T2, IMC6^2-290-3xHA Q185* (Azi at 185) (Toxoplasma gondii) (UniProt S8F8Q1); assay: as above
T2 sequence (chain, p-azidophenylalanine (Azi) at 185 (amber stop codon)): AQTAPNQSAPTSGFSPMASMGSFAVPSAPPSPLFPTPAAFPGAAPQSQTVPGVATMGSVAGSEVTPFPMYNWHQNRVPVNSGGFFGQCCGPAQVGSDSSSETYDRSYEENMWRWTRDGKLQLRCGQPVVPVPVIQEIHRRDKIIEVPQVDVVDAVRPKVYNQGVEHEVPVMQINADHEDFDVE

[3] = biological target: T3, IMC6^2-290-3xHA F205* (Azi at 205) (Toxoplasma gondii) (UniProt S8F8Q1); assay: as above
T3 sequence (chain, p-azidophenylalanine (Azi) at 205 (amber stop codon)): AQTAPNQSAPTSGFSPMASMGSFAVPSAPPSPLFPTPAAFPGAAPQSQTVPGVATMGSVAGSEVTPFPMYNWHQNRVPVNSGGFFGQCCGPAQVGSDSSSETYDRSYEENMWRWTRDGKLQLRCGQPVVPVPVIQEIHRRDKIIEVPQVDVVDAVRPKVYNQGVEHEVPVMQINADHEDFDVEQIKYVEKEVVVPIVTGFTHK

[4] = biological target: T4, IMC6^2-290-3xHA N162* (Azi at 162) (Toxoplasma gondii) (UniProt S8F8Q1); assay: cross-linking + co-IP; Azi photocrosslinking (365 nm, 20 min, on ice) in parasites; lysate boiled in 1% SDS, diluted 10-fold to RIPA conditions; IP with anti-HA agarose overnight at 4°C; blots with anti-HA and anti-IMC3
T4 sequence (chain, p-azidophenylalanine (Azi) at 162 (amber stop codon)): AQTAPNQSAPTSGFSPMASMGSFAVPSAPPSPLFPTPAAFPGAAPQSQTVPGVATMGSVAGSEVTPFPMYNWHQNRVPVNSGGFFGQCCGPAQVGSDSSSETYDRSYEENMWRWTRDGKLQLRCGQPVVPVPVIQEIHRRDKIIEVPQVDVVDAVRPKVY

[5] = biological target: T5, IMC6^2-290-3xHA E229* (Azi at 229) (Toxoplasma gondii) (UniProt S8F8Q1); assay: cross-linking; Azi photocrosslinking (365 nm, 20 min, on ice) in parasites; whole cell lysates, anti-HA western blot; size of the crosslinked product compared between strains with untagged and smMyc-tagged candidate partner
T5 sequence (chain, p-azidophenylalanine (Azi) at 229 (amber stop codon)): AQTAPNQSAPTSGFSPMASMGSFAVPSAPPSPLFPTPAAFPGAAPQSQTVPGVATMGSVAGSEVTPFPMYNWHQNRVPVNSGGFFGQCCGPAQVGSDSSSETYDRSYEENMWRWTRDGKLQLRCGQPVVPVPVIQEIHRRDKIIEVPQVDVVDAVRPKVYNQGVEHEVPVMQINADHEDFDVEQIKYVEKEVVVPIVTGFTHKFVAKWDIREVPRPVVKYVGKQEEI

[6] = biological target: T4, IMC6^2-290-3xHA N162* (Azi at 162) (Toxoplasma gondii); assay: as above
[7] = biological target: T6, IMC6^2-290-3xHA K277* (Azi at 277) (Toxoplasma gondii) (UniProt S8F8Q1); assay: as above
T6 sequence (chain, p-azidophenylalanine (Azi) at 277 (amber stop codon)): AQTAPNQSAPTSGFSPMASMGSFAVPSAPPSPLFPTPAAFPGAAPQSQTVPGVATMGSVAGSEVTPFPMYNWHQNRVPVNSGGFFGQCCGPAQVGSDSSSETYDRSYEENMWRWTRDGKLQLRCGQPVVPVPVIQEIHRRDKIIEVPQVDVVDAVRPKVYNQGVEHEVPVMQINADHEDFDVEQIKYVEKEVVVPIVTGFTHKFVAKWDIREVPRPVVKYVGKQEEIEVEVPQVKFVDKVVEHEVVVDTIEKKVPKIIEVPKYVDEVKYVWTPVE

[8] = biological target: T7, IMC6^2-290-3xHA Y221* (Azi at 221) (Toxoplasma gondii) (UniProt S8F8Q1); assay: as above
T7 sequence (chain, p-azidophenylalanine (Azi) at 221 (amber stop codon)): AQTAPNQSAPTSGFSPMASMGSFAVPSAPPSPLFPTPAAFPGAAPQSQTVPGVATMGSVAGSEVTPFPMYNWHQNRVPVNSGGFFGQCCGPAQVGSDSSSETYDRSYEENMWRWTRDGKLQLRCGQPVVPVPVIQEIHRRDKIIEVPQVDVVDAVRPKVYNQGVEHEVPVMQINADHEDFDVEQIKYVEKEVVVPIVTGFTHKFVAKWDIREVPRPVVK

[9] = biological target: T8, IMC6^2-290-3xHA E243* (Azi at 243) (Toxoplasma gondii) (UniProt S8F8Q1); assay: as above
T8 sequence (chain, p-azidophenylalanine (Azi) at 243 (amber stop codon)): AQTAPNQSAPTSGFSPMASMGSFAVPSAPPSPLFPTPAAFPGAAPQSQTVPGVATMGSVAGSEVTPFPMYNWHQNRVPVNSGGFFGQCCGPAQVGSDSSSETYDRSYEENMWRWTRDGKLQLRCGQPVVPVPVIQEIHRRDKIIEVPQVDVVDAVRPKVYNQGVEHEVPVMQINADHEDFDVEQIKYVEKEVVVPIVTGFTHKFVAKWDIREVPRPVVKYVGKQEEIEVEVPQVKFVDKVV

[10] = biological target: T9, IMC6^2-290-3xHA E245* (Azi at 245) (Toxoplasma gondii) (UniProt S8F8Q1); assay: as above
T9 sequence (chain, p-azidophenylalanine (Azi) at 245 (amber stop codon)): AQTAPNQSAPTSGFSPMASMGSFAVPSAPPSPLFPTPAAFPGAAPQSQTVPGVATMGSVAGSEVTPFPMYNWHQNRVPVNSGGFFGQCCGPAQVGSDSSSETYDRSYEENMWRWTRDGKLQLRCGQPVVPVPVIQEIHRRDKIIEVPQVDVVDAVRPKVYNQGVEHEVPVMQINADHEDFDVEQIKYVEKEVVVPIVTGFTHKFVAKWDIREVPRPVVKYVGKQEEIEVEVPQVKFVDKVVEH

Measured: binding

ILP1-smMyc
binds: [1] | [2] | [3]

IMC3 (from UniProt S8FA55)
binds: [4]

IMC3-smMyc (from UniProt S8FA55)
binds: [5] | [6] | [7] | [8] | [9] | [10]
